Reference: PubChem BioAssay (Tox21)
“And” between values parts separate entries of the source, which are not always exact repeats. Identical values can stand only once. Inconclusive means that the source gave no clear call. Such entries were picked first, then a sample of the others. For part of these data: Potencies of inconclusive entries are doubtful fits and often do not repeat. The source made the active and inactive calls. Unless noted, the call rests on the fitted dose curve.

By UniProt entry, the sequences of proteins in these tests, tags left out. Where a name states a change or a piece, a line headed by the entry shows the natural chain unless it says otherwise.
UniProt P14416, whole entry, looked up: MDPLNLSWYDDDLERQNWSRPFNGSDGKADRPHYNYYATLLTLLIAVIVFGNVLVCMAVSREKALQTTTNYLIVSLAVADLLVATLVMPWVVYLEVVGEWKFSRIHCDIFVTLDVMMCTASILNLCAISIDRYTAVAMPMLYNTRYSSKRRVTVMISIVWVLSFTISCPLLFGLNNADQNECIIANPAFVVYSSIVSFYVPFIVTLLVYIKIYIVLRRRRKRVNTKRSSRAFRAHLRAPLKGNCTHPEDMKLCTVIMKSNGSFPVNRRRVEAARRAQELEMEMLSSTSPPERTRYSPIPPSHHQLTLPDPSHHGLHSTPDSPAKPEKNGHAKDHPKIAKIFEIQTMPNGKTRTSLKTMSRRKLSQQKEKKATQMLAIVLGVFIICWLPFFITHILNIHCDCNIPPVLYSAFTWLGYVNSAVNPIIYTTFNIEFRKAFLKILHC
UniProt P28223, whole entry, looked up: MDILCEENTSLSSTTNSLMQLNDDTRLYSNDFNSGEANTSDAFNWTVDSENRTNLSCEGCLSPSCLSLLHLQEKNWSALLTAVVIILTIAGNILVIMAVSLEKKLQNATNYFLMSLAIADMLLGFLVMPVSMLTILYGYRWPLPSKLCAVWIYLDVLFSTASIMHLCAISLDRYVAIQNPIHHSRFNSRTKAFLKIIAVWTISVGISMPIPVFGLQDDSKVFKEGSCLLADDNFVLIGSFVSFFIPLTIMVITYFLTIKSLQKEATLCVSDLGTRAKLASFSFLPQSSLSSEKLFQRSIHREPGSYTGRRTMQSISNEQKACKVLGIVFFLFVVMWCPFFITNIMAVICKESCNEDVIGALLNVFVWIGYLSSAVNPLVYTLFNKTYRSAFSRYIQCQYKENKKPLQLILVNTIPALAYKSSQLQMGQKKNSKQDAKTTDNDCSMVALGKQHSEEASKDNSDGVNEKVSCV
UniProt P11229: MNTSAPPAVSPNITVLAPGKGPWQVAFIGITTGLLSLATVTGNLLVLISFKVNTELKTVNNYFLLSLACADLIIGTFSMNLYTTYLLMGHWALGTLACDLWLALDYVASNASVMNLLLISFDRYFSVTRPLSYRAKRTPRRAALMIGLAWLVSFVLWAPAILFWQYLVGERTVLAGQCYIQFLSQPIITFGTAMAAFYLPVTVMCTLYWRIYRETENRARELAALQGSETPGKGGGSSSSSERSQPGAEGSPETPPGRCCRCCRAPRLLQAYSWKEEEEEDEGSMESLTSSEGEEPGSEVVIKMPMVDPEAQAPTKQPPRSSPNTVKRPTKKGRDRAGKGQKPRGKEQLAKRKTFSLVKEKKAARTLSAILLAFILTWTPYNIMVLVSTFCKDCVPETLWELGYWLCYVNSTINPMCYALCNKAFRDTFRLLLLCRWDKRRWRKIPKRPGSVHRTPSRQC

Columns and labels:
[1] = Nuclear factor erythroid 2-related factor 2/antioxidant responsive element (Nrf2/ARE) small molecule agonists: luciferase reporter gene qHTS assay in human keratinocytes (AID 1919969); further: potency means the concentration at half of the fitted maximal effect; nearly all actives have a fitted effect of over 35% in size
[2] = p53 small molecule agonists, cell-based qHTS assay with human liver microsomes (AID 1963577); settings: HCT-116 p53RE-bla with human liver microsomes, ratio, 16 h; activation: at 66 µM (top of the series) unless noted; further: potency means the concentration at half of the fitted maximal effect;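 on activation: p53 response element beta-lactamase reporter cells with liver microsomes plus NADPH; on the % scale 0 is the no-effect control and ±100 the full control effect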
In short: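 p53RE-bla cells; 5 h settle, 37 C/5% CO2; cpd + HLM 0.5 mg/mL + NADPH 0.5 mg/mL (final); 16 h 37 C; LiveBLAzer 2 h RT dark; fluorescence readout.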

[3] = p53 small molecule agonists, cell-based qHTS assay with rat liver microsomes (AID 1963578); settings: HCT-116 p53RE-bla, beta-lactamase ratio, 16 h; activation: at 66 µM (top of the series) unless noted; further: potency means the concentration at half of the fitted maximal effect
In short: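 Rat liver microsome activation: microsomes 0.5 mg/mL, NADPH 0.5 mg/mL final; p53RE-bla cells, 16 h 37 C; LiveBLAzer readout, 2 h RT dark.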

[4] = p53 small molecule agonists, cell-based qHTS assay (AID 1963582; active means well fitted activation curve with a large enough effect in the signal ratio in the repeat runs, not every such curve was filed as active; inconclusive means weak or mixed curves; the % refers to the signal ratio; further: potency means the concentration at half of the fitted maximal effect); settings: HCT-116 p53RE-bla reporter, beta-lactamase FRET ratio, 16 h; activation: at 66 µM (top of the series) unless noted
In short: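 Quantitative HTS in p53RE-bla cells: after a 5 h settling period, compounds delivered in DMSO were left on cells for 16 h at 37 C, and reporter induction was measured as fluorescence following 2 h substrate loading.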

[5] = cAMP Responsive Elements (CRE) small molecule agonists, cell-based qHTS assay (AID 1963590); settings: CRE-bla HEK293T, beta-lactamase FRET ratio, 3 h; activation: at 92.4 µM (top of the series) unless noted; further: potency means the concentration at half of the fitted maximal effect; on activation: on the % scale 0 is the no-effect control and ±100 the full control effect
In short: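 Agonist mode qHTS in CRE-bla HEK 293T cells: compounds dosed from DMSO for 3 h at 37 C/5% CO2, followed by LiveBLAzer B/G FRET substrate for 2 h at room temperature.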

[6] = biological target: Beta-2 adrenergic receptor (Homo sapiens) (UniProt P07550); assay: Adrenergic beta2 receptor (ADRB2) small molecule agonists, cell-based qHTS assay (AID 1963593); settings: CHO-ADRB2 cells, cAMP HTRF, 30 min; further: potency means the concentration at half of the fitted maximal effect;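 on activation: CHO cells stably overexpressing human ADRB2; on the % scale 0 is the no-effect control and ±100 the full control effect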
In short: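 CHO cells stably over-expressing ADRB2 were plated overnight at 37C, then dosed with compounds plus a stimulation mix containing 100uM IBMX and 25uM Ro-20-1724 for 0.5hr at room temperature. cAMP was measured by HTRF competition, 1hr.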

[7] = biological target: D(2) dopamine receptor (Homo sapiens) (UniProt P14416); assay: Dopamine D2 receptor (DRD2) small molecule antagonists, cell-based qHTS assay (AID 1963595; active means well fitted inhibition curve with a large enough effect in the signal ratio in the repeat runs, with a control signal flat; inconclusive means weak or mixed curves, or effect the other way; the % refers to the signal ratio; further: potency means the concentration at half of the fitted maximal effect; on activity change, negative = inhibition: on the % scale 0 is the no-effect control and ±100 the full control effect); settings: HEK293-DRD2 cAMP HTRF antagonist mode; activity change, negative = inhibition: at 92.4 µM (top of the series) unless noted
In short: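 Stable D2 receptor HEK293 line, 24 h after seeding. Compound preincubated 10 min, then quinpirole (12 nM) with forskolin analogue NKH477 (200 nM), 30 min, room temperature. Detection by time-resolved FRET of cAMP.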

[8] = p53 small molecule agonists, cell-based qHTS assay with human liver microsomes: qHTS cell viability counter screen (AID 1963579); further: on the % scale 0 is the no-effect control and ±100 the full control effect; nearly all actives have a fitted effect of over 45% in size
In short: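 Luminescent CellTiter-Glo read-out, 30 min at room temperature, gauged cytotoxicity in p53RE-bla cells exposed 16 h at 37 C to DMSO-dissolved compounds with metabolic activation by human liver microsomes and NADPH, each 0.5 mg/mL final.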

[9] = biological target: 5-hydroxytryptamine receptor 2A (Homo sapiens) (UniProt P28223); assay: 5-hydroxytryptamine receptor 2A (HTR2A) small molecule antagonists, cell-based qHTS assay (AID 1963586); further: nearly all actives have a fitted effect of over 45% in size; further: potency means the concentration at half of the fitted maximal effect
In short: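 Antagonist-mode intracellular calcium assay: DOI (4 nM) added after 5 min compound pre-incubation at room temperature to dye-loaded HTR2A-CHO cells. Fluorescence followed for 3 min, sampled every second.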

[10] = biological target: Muscarinic acetylcholine receptor M1 (Homo sapiens) (UniProt P11229); assay: Cholinergic receptor muscarinic 1 (CHRM1) small molecule antagonists, cell-based qHTS assay (AID 1963588); further: potency means the concentration at half of the fitted maximal effect; nearly all actives have a fitted effect of over 40% in size
In short: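 CHRM1-CHO calcium-flux assay, antagonist mode. Cells were seeded 18 h, dye-loaded 1 h at 37 C and given compound for 5 min at RT, then acetylcholine was added at 50nM. FDSS fluorescence was read 3 min; 15 concentrations, three runs.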

[11] = cAMP Responsive Elements (CRE) small molecule antagonists, cell-based qHTS assay (AID 1963591; active means well fitted inhibition curve with a large enough effect in the signal ratio in the repeat runs, not every such curve was filed as active; inconclusive means weak or mixed curves, or effect the other way; the % refers to the signal ratio; further: potency means the concentration at half of the fitted maximal effect); settings: CRE-bla HEK293T, beta-lactamase FRET ratio; activity change, negative = inhibition: at 92.4 µM (top of the series) unless noted
In short: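 Antagonist mode: test compounds are co-incubated with the adenylyl cyclase activator NKH477 (0.25 uM final) on CRE-bla HEK293T cells for 3 h at 37 °C, followed by LiveBLAzer substrate loading.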

[12] = p53 small molecule agonists, cell-based qHTS assay with rat liver microsomes: qHTS cell viability counter screen (AID 1963580); further: potency means the concentration at half of the fitted maximal effect; nearly all actives have a fitted effect of over 45% in size
In short: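 Viability is assessed in parallel with the p53 reporter read: HCT-116 p53RE-bla cells receive compounds plus rat microsomes and NADPH (0.5 mg/mL final apiece), incubate 16 h at 37 C, and then CellTiter-Glo luminescence is recorded.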

[13] = p53 small molecule agonists, cell-based qHTS assay: qHTS cell viability counter screen (AID 1963581); further: potency means the concentration at half of the fitted maximal effect; nearly all actives have a fitted effect of over 45% in size
In short: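 Cells: HCT-116 with p53 response element-driven beta-lactamase. Treatment: 16 h, 37 C, compounds in DMSO. Read: CellTiter-Glo luminescence after 30 min RT.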

[14] = activation: at 92.4 µM (top of the series) unless noted

Cc1ccccc1OP(=O)(Oc1ccccc1C)Oc1ccccc1C
active: Potency [1] 48.8 µM | Potency [2] 1.83 µM
inconclusive: Potency [3] 5.27 µM [fluorescent, full curve] | Potency [4] 5.78 µM [fluorescent, full curve] | Potency [5] 9.73 µM [fluorescent, partial curve] | Potency [6, 14] 2.74 µM [inhibitor, partial curve, poor fit] | activity change, negative = inhibition [7] -9.92%

CCOC(=O)N(C)C(=O)CSP(=S)(OCC)OCC
inactive: Potency [2] | Potency [8] | Potency [9]
inconclusive: Potency [1] 68.6 µM [activator, partial curve, poor fit] | Potency [10] 1.68 µM [inhibitor, full curve, poor fit] | Potency [11] 68.6 µM [activator] | activation [6, 14] -3.02%

CC(C)Oc1cccc(NC(=O)c2ccccc2C(F)(F)F)c1
inconclusive: Potency [1] 15.4 µM [activator, single point] | activation [2] -6.69% | Potency [12] 7.25 µM [cytotoxic, partial curve, poor fit] | Potency [13] 2.6 nM [cytotoxic, full curve, poor fit] | Potency [9] 18.8 µM [inhibitor, full curve] | activation [5] 15.1% | Potency [11] 68.6 µM [activator, single point] | Potency [6, 14] 0.0433 µM [rising, full curve, poor fit] | Potency [7] 68.6 µM [inhibitor, partial curve, poor fit]
active: Potency [10] 0.0119 µM

CCN(CC)C(=O)/C(Cl)=C(\C)OP(=O)(OC)OC
inconclusive: Potency [1] 62.6 µM [activator, single point] | Potency [3] 1.86 µM [fluorescent, partial curve] and 646 nM [fluorescent] | activation [6, 14] 12.8%
inactive: Potency [5] | activation ([6]; at 92.4 µM (top of the series)) 5.61%
active: Potency [2] 1.86 µM and 9.13 µM
